# According to publication PMC10830565 (2024):
# By UniProt entry, the sequences of proteins in these tests, tags left out. Where a name states a change or a piece, a line headed by the entry shows the natural chain unless it says otherwise.
# UniProt F4JL58: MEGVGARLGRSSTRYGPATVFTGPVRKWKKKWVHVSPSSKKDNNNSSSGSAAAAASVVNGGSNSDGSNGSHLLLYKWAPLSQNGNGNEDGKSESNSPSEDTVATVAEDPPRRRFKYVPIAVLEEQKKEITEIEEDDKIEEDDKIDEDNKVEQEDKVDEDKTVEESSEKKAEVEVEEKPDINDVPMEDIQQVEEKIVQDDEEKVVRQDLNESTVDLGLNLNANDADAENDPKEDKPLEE
# UniProt Q9FLP2: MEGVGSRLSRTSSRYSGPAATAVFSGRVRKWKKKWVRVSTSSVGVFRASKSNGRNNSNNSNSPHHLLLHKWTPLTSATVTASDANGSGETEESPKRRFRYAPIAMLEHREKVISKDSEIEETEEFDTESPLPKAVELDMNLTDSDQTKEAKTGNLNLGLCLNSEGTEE
# UniProt Q6EVK6: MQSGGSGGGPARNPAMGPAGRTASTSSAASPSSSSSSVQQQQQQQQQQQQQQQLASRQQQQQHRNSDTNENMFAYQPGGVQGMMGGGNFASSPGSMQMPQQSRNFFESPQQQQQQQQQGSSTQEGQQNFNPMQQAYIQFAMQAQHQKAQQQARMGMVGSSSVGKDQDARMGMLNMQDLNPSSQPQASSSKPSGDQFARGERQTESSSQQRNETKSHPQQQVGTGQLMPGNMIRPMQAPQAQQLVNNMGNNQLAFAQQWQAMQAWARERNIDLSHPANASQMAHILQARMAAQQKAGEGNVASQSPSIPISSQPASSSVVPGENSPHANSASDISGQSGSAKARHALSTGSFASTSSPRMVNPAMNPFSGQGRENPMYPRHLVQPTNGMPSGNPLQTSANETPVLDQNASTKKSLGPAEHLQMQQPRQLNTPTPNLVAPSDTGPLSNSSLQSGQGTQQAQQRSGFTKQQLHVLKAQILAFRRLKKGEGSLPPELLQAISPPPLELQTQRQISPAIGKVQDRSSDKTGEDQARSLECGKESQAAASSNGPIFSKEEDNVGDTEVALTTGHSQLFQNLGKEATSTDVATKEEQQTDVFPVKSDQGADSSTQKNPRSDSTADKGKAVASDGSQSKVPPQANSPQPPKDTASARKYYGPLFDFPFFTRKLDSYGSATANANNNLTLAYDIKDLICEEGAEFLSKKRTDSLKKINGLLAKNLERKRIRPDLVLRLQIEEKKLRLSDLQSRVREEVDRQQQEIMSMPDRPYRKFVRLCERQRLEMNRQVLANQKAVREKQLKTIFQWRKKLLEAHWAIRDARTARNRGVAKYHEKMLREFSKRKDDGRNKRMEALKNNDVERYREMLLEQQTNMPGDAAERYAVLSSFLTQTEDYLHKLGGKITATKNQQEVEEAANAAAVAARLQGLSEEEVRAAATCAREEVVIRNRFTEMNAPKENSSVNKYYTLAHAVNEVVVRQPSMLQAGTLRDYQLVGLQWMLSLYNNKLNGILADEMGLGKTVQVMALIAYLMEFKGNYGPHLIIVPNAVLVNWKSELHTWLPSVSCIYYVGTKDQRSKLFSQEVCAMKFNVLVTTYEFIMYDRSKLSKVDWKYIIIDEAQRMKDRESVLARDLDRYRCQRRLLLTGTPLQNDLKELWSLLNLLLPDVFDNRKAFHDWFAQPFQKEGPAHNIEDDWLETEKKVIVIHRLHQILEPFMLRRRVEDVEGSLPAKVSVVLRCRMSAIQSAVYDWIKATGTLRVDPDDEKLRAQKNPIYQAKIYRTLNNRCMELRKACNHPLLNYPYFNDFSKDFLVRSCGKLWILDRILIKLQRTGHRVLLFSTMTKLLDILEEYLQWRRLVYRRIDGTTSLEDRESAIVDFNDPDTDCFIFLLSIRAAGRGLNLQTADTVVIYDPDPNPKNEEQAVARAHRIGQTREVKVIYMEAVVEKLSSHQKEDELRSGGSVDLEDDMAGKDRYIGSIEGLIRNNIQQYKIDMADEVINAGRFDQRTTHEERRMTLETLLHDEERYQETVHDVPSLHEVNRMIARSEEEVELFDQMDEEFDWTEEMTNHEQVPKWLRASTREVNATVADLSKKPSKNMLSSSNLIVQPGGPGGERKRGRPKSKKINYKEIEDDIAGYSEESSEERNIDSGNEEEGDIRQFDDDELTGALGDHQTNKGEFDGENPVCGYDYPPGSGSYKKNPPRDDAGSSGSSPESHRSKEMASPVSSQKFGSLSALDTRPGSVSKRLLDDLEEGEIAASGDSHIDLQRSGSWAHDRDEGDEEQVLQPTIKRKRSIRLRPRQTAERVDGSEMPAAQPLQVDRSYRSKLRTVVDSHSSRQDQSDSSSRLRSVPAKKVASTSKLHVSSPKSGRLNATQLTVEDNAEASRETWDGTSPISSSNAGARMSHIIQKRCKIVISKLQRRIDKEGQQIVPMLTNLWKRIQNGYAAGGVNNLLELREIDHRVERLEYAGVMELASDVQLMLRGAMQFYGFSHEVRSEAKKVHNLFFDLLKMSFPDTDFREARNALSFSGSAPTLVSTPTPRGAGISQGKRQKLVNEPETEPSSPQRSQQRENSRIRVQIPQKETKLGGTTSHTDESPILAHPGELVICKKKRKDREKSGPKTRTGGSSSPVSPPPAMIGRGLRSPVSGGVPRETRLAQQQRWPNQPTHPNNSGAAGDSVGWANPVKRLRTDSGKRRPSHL
# UniProt F4IHS2: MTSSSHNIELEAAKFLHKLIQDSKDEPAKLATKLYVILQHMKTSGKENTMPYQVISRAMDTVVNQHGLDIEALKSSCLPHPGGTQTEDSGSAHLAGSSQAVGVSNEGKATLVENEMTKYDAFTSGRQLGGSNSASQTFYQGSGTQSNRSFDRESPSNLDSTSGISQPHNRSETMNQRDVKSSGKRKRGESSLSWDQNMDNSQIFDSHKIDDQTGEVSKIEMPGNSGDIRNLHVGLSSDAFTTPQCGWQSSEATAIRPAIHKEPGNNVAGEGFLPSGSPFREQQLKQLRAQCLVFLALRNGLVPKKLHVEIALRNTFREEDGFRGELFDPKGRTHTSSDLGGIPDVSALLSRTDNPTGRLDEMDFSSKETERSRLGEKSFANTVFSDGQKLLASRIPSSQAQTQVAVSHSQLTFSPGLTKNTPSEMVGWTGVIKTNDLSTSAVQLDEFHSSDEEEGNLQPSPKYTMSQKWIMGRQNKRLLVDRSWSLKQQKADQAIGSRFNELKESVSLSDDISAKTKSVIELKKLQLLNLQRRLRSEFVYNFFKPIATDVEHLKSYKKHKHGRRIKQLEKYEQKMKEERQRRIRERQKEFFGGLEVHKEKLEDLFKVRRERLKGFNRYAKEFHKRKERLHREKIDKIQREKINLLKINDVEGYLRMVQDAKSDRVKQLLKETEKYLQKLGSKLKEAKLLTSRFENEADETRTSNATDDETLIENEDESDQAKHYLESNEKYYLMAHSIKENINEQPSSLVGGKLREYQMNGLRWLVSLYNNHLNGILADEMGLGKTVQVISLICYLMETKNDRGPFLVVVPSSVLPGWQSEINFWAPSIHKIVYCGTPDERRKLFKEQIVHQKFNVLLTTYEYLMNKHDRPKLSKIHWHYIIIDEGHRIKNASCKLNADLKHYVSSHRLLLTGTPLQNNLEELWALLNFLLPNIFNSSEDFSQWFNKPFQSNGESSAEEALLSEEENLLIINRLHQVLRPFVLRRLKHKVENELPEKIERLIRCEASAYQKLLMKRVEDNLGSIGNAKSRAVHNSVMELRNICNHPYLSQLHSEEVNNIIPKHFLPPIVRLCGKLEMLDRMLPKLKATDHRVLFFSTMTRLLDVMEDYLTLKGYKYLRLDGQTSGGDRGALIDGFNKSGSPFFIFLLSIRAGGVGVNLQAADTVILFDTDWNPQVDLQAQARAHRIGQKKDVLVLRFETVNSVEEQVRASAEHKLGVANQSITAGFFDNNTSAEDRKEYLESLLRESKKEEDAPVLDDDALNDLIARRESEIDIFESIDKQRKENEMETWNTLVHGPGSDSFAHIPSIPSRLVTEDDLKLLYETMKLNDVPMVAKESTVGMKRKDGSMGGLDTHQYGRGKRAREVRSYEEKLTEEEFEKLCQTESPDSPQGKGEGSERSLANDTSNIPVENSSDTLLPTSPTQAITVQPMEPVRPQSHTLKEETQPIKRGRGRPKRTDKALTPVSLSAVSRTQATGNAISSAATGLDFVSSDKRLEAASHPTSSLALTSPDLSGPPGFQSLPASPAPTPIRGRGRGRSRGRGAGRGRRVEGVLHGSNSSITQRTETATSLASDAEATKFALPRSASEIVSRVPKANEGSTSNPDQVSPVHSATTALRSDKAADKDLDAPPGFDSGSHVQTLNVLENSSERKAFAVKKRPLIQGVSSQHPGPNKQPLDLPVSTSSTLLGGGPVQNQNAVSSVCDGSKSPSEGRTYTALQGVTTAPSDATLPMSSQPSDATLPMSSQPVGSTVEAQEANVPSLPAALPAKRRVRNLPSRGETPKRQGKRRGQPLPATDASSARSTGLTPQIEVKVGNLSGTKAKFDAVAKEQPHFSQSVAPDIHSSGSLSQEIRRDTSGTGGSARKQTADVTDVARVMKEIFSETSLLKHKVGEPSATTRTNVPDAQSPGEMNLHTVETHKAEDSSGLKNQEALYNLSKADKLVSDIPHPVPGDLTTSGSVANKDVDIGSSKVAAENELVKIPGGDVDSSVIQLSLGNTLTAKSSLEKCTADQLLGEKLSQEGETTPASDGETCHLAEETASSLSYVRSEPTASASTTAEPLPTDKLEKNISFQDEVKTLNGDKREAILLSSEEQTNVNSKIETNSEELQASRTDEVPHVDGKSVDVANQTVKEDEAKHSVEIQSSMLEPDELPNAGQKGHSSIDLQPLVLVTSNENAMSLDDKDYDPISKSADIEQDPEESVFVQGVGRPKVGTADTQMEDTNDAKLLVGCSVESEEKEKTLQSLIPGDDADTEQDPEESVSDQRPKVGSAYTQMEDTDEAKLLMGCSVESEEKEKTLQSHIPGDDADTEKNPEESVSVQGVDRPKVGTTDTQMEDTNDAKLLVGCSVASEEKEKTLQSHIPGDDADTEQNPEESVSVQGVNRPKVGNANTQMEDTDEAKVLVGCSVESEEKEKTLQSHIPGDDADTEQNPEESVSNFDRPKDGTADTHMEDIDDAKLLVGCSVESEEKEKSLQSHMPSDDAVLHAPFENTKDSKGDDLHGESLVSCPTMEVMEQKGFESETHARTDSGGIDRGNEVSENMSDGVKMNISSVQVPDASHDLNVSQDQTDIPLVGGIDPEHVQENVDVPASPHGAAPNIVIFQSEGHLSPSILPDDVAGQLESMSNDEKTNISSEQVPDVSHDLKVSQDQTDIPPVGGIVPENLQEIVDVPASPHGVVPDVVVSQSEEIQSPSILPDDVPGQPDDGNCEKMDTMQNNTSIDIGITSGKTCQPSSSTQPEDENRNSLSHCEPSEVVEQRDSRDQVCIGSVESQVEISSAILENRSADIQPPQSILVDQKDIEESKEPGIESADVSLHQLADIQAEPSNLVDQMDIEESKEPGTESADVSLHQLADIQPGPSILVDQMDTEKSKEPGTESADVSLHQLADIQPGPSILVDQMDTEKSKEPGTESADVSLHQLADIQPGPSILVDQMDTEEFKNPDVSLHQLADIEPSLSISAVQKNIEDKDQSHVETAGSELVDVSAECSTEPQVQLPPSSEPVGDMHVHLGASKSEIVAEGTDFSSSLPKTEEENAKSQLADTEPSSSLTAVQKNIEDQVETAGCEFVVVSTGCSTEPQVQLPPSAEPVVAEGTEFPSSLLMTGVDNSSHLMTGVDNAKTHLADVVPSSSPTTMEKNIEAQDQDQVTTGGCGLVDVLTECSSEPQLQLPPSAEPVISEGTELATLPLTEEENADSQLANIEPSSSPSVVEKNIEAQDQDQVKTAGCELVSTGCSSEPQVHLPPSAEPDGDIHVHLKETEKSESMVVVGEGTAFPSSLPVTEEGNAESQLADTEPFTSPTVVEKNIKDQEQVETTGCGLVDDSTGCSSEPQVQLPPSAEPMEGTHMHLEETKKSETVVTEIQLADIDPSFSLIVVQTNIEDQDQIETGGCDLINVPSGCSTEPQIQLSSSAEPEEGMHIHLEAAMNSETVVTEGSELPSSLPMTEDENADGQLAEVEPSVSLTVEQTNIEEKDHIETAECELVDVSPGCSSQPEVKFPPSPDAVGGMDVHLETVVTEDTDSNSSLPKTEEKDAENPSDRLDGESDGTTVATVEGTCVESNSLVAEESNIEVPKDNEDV
# UniProt Q9LF51: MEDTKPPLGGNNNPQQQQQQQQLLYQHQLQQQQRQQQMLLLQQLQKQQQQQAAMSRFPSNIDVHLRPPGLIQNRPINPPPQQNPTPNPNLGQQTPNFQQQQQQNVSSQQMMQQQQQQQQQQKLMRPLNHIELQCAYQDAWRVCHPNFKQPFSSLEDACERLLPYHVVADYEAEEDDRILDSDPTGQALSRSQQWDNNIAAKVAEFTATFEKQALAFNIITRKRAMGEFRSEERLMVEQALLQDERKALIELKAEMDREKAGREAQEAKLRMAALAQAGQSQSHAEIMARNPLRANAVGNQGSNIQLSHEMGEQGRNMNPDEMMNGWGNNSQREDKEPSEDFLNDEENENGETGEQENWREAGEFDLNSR
# Like-named read-outs stand apart in the source and are kept apart here. Results are given in words; binding and its absence hold for the method and conditions named. Binding seen in cells or lysates may run through a third protein. A yes stands for co-enrichment or nearness to the bait. Other partners may have been found.
# B1: SWI3D (protein, UniProt Q8VY05 1-985)
# chain: MEEKRRDSAGTLAFAGSSGDSPASEPMPAPRRRGGGLKRKANALGGSNFFSSAPSKRMLTREKAMLASFSPVHNGPLTRARQAPSIMPSAADGVKSEVLNVAVGADGEKPKEEEERNKAIREWEALEAKIEADFEAIRSRDSNVHVVPNHCGWFSWEKIHPLEERSLPSFFNGKLEGRTSEVYREIRNWIMGKFHSNPNIQIELKDLTELEVGDSEAKQEVMEFLDYWGLINFHPFPPTDTGSTASDHDDLGDKESLLNSLYRFQVDEACPPLVHKPRFTAQATPSGLFPDPMAADELLKQEGPAVEYHCNSCSADCSRKRYHCPKQADFDLCTECFNSGKFSSDMSSSDFILMEPAEAPGVGSGKWTDQETLLLLEALEIFKENWNEIAEHVATKTKAQCMLHFLQMPIEDAFLDQIDYKDPISKDTTDLAVSKDDNSVLKDAPEEAENKKRVDEDETMKEVPEPEDGNEEKVSQESSKPGDASEETNEMEAEQKTPKLETAIEERCKDEADENIALKALTEAFEDVGHSSTPEASFSFADLGNPVMGLAAFLVRLAGSDVATASARASIKSLHSNSGMLLATRHCYILEDPPDNKKDPTKSKSCSADAEGNDDNSHKDDQPEEKSKKAEEVSLNSDDREMPDTDTGKETQDSVSEEKQPGSRTENSTTKLDAVQEKRSSKPVTTDNSEKPVDIICPSQDKCSGKELQEPLKDGNKLSSENKDASQSTVSQSAADASQPEASRDVEMKDTLQSEKDPEDVVKTVGEKVQLAKEEGANDVLSTPDKSVSQQPIGSASAPENGTAGGNPNIEGKKEKDICEGTKDKYNIEKLKRAAISAISAAAVKAKNLAKQEEDQIRQLSGSLIEKQLHKLEAKLSIFNEAESLTMRVREQLERSRQRLYHERAQIIAARLGVPPSMSSKASLPTNRIAANFANVAQRPPMGMAFPRPPMPRPPGFPVPGSFVAATTMTGSSDPSPGSDNVSSV
# B2: MINU2 (protein, UniProt F4K128 1-1064)
# chain: MVKQLQEQEENDPVEKTKSLISALNYLSRDLLLPSHLYASVSSIYHASVSDLSPSPPLRGNSYTPNRGDLMSEFEDALLQQRLNYESGSRLAELKETRYKNRIHNRLSQLEGLPSNRGEDLQEKCLLELYGLKLQELQCRVRGEVSAEYWLRLNCADPERQLYDWGMMRLPRRMYGVGDSFVMEADDQFRNKRDAERLLRLEEEEKNLIETTQRKFFAEVLNAVREFQLQIQASHRRCKQRNDGVQAWHGKQRQRATRAEKLRIMALKSDDQEEYMKLAKESKNEKLTLFLEETNKIFVSLGAAVQRQKDAKLSENTKLLKGSESDLSDVDAPEDVLPAQDIEIIDSDNNDDSNDLLEGERQFNLAIHSIQEKVTKQPSLLQGGELRSYQLEGLQWMVSLYNNDYNGILADEMGLGKTIQTIALIAYLLESKDLHGPHLILAPKAVLPNWENEFALWAPSISAFLYDGSKEKRTEIRARIAGGKFNVLITHYDLIMRDKAFLKKIDWNYMIVDEGHRLKNHECALAKTLGTGYRIKRRLLLTGTPIQNSLQELWSLLNFLLPHIFNSIHNFEEWFNTPFAECGSASLTDEEELLIINRLHHVIRPFLLRRKKSEVEKFLPGKTQVILKCDMSAWQKLYYKQVTDVGRVGLHSGNGKSKSLQNLTMQLRKCCNHPYLFVGADYNMCKKPEIVRASGKFELLDRLLPKLKKAGHRILLFSQMTRLIDLLEIYLSLNDYMYLRLDGSTKTDQRGILLKQFNEPDSPYFMFLLSTRAGGLGLNLQTADTIIIFDSDWNPQMDQQAEDRAHRIGQKKEVRVFVLVSIGSIEEVILERAKQKMGIDAKVIQAGLFNTTSTAQDRREMLEEIMSKGTSSLGEDVPSEREINRLAARTEEEFWMFEQMDEERRKKENYKTRLMEEKEVPEWAYTSETQEDKTNAKNHFGSLTGKRKRKEAVYSDSLSDLQWMKAMESEDEDASKVSQKRKRTDTKTRMSNGSKAEAVLSESDEEKEEEEEERKEESGKESEEENEKPLHSWKTNKKKRSRYPVMTSSPNSRGKGSSKGSKRN
# B3: SWI3C (protein, UniProt Q9XI07 1-807)
# chain: MPASEDRRGKWKRKKRGGLSAARKPKQEEEDMEEEDEENNNNNNEEMDDVENADELQQNGGATPDPGLGIGEVVEDSGSRISDFPAVVKRVVIRPHASVMAVVAAERAGLIGETRGQGSLPALENISFGQLQALSTVPADSLDLERSDGSSSAYVISPPPIMDGEGVVKRFGDLVHVLPMHSDWFAPNTVDRLERQVVPQFFSGKSPNHTPESYMEFRNAIVSKYVENPEKTLTISDCQGLVDGVDIEDFARVFRFLDHWGIINYCATAQSHPGPLRDVSDVREDTNGEVNVPSAALTSIDSLIKFDKPNCRHKGGEVYSSLPSLDGDSPDLDIRIREHLCDSHCNHCSRPLPTVYFQSQKKGDILLCCDCFHHGRFVVGHSCLDFVRVDPMKFYGDQDGDNWTDQETLLLLEAVELYNENWVQIADHVGSKSKAQCILHFLRLPVEDGLLDNVEVSGVTNTENPTNGYDHKGTDSNGDLPGYSEQGSDTEIKLPFVKSPNPVMALVAFLASAVGPRVAASCAHESLSVLSEDDRMKSEGMQGKEASLLDGENQQQDGAHKTSSQNGAEAQTPLPQDKVMAAFRAGLSAAATKAKLFADHEEREIQRLSANIVNHQLKRMELKLKQFAEIETLLMKECEQVEKTRQRFSAERARMLSARFGSPGGISPQTNNLQGMSLSTGGNNINSLMHQQHQQQQASATSQPSIIPGFSNNPQVQAQMHFMARQQQQQQQQQQQQQQAFSFGPRLPLNAIQTNAGSTASPNVMFGNNQLNNPAAAGAASINQPSFSHPMVRSSTGSGSGSGLGLN
# B4: ARP4 (protein, UniProt Q84M92 1-441)
# chain: MYGGDEVSAIVVDLGSHTCKAGYAGEDAPKAVFPSVIGAVDGVEAMDVDVDSTKTNSNSEDSKTESEKEKSKRKLYVGSQAMSYRRDHMEVLSPIKDGIVSDWDLVDNIWEHAFKSCLMIDPTEHPMLLAEPPLNTQQQREKAAELMFEKYKVPALFMAKNPVLTSFATGRATSLVVDCGGGSTTISPVHDGYVLQKAVVSSPLGGEFLTDCLLKSLESKGIKIRPRYSFKRKEVRAGEFQVEDVDIPDTTESYKLFCQRMIVGDIKDSICRVPDTPYDDKSYSNIPTTSYELPDGQTLEIGADRFKVPDVMFNPSIVQTIPGMEKYAEMIPSVRGLPHMVMESINKCDVDIRRELYSSILLAGGTSSMQQLKERLEKDLIEESPHSARVKVLASGNTTERRFSVWIGGSILASLGSFQQMWFSKSEYEEHGASYIQRKCP
# B5: ARP7 (protein, UniProt Q8L4Y5 1-363)
# chain: MEALVVDAGSKFLKAGAAIPDQSPAMIIPSQMKRMVDDGSSSADNPTTVFEDVTLDPIERGLIRDWDAMEDLLRYVVYTGLGWEEGNEGNILFTDPLCTPKAIREQLVQLMFETFNVSGFYASEQAVLSLYAVGRISGCTVDIGHGKIDIAPVLEGAVQHIASKRFELGGTELTKLFAQELGKTNPSMNLSMSDVEKLKEQYANCAEDEIAYKKTQNCEIEQHTLPDGQVISIGRERYSVGEALFQPSILGLEEHGIVEQLVRIISTVSSENHRQLLENTVLCGGTTSMTGFESRFQKEANLCSSAIRPTLVKPPEYMPENLGMYSAWVGGAILAKVVFPQNQHVTKADYDETGPSVVHRKCF
# Tests used:
# [1] = molecular target: BCL7A-GFP (Arabidopsis thaliana) (UniProt F4JL58); experiment: affinity purification with mass spectrometry; anti-GFP beads on extracts of 14-day-old Arabidopsis seedlings with BCL7A-GFP (bcl7a) or BCL7B-GFP (bcl7b); SWI3A and SWI3D also told for the brm-1 background; two biological replicates
# [2] = molecular target: BCL7B-GFP (Arabidopsis thaliana) (UniProt Q9FLP2); experiment: as above
# [3] = molecular target: BRM-GFP (Arabidopsis thaliana) (UniProt Q6EVK6); experiment: affinity purification with mass spectrometry; immunoprecipitation of BRM-GFP from Arabidopsis seedlings in the WT (brm-1) and bcl7a bcl7b backgrounds; two biological replicates
# [4] = molecular target: BCL7A-GFP (Arabidopsis thaliana) (UniProt F4JL58); experiment: affinity purification with mass spectrometry; anti-GFP beads on extracts of 14-day-old Arabidopsis seedlings with BCL7A-GFP (bcl7a) or BCL7B-GFP (bcl7b); SWI3A and SWI3D also told for the brm-1 background; two biological replicates; remark: listed apart in the source
# [5] = molecular target: BCL7B-GFP (Arabidopsis thaliana) (UniProt Q9FLP2); experiment: as above; remark: listed apart in the source
molecule,measurement,setting,value
BRAHMA (BRM) (from UniProt Q6EVK6 1-2193),binding,[1],binds
same,binding,[2],binds
SPLAYED (SYD) (from UniProt F4IHS2 1-3574),binding,[1],binds
same,binding,[2],binds
BRIP2 (from UniProt Q9LF51),binding,[3],binds
BRD1 (from UniProt Q9LM88),binding,[3],binds
B1,binding,[4],binds
same,binding,[5],binds
B2,binding,[4],binds
same,binding,[5],binds
B3,binding,[3],binds
B4,binding,[3],binds
B5,binding,[3],binds
